Here are results for 58 molecules from PubChem BioAssay AID2685 (National Center for Advancing Translational Sciences (NCATS), 2010).

Structures are written as SMILES. This is one part of the list. Further columns of the screen follow, without active or inactive calls. Compounds called inactive in the main read-out are mostly missing here. Potencies come from curve fits of mixed quality, noted in brackets.

The nature of this assay: qHTS Assay for Lipid Storage Modulators in Drosophila S3 Cells.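 For cell number change: cells counted by Cell Tracker Red CMTPX staining in the red channel.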 The following applies: BODIPY lipid droplet fluorescence, 18-24 h; for cell number change: measured here: cell count max response, cells fed with added oleic acid. The method, boiled down: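 Laser-scanning cytometry quantifies lipid droplet accumulation (500–530 nm total intensity; droplet/cell object ratio) in oleic acid-fed (400 uM added) Drosophila S3 cells treated with a concentration series. 20 uM Triacsin C defined 100% inhibition.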
Background: qHTS replaces the single test concentration by a dilution series.

Where [1] appears, read: measured here: cell number channel AC50, cells fed with added oleic acid.
The mark [2] stands for this setting: measured here: lipid fluorescence (Fed channel) AC50, cells fed with added oleic acid.

Turning to `N#Cc1cnc2ncnn2c1-c1ccccc1`, the cell number change is -1.77%.
In general, AC50 refers to the concentration at which the activity in the assay is half-maximal. Low values mean greater potency, high ones weaker potency. Turning to `Cc1ccc2sc(N3CCN(C(=O)c4ccc([N+](=O)[O-])o4)CC3)nc2c1C`, the cell number change was -19.6%. For the same molecule, under setting [1], the AC50 is 1.3 µM [falling, full curve, poor fit]. In addition, the AC50 under setting [2] is 0.58 µM [falling, single point].
As to `CC(=O)Nc1nnc(SCc2cccc(F)c2)s1`, the cell number change is -14.1%. Further, under setting [2], the AC50 is 0.0366 µM [falling, full curve, poor fit].
As for `O=C1NCCn2nc3ccccc3c21`, the cell number change is -6.45%. Moreover, the AC50 under setting [2] is 2.06 µM [rising, partial curve].
As for `Cn1c(CC(=O)Nc2ccccc2)nnc1SCCOc1ccccc1`, the cell number change was found to be 4.85%.
Take `CCOc1ccc(NC(=S)NC(=O)c2c(Cl)c(C)nn2C)c([N+](=O)[O-])c1`: the cell number change was determined as 17.1%. The AC50 under setting [2] was 13 µM [rising, single point].
Consider `Cc1ccc(C)c2[nH]c(=O)c(CN(CCN3CCOCC3)Cc3nnnn3CC3CCCO3)cc12` (configuration not stated), for which the cell number change is -8.15%. Besides, under setting [2], the AC50 is 6.51 µM [rising, single point].
For the molecule `COC(=O)c1cc(NC(=O)c2c(-c3ccccc3)noc2C)ccc1N1CCOCC1`, the AC50 is, setting by setting: under setting [1], 0.58 µM [rising, partial curve]; under setting [2], 3.66 µM [rising, single point].
Regarding `O=C(CN1CCCCCC1)Nc1ccc(Br)cn1`, the cell number change is -51.6%. Further, under setting [1], the AC50 is 0.092 µM [falling, full curve].
For `CCCNC(=O)c1ccc(N2CCC3(CC2)CC(c2cccc(Br)c2)=NO3)c(NC(=O)c2cccc(OC)c2)c1`, the cell number change was -18.1%. The AC50 under setting [1] was 0.184 µM [rising, full curve, poor fit].
Regarding `CCOCCn1c(=O)c2c(nc3n2CC(C)CN3CCc2ccccc2)n(C)c1=O` (configuration not stated), the cell number change stood at 3.67%. Further, the AC50 under setting [2] was 25.9 µM [falling, single point].
For the molecule `COc1ccc(-c2cc(C(=O)N3CCN(c4ccccc4O)CC3)c3ccccc3n2)cc1OC`, the cell number change is -33.2%. The AC50 under setting [1] is 15.8 µM [falling, single point]. In addition, the AC50 under setting [2] is 12.6 µM [falling, single point].
For the molecule `CCOc1nc(-c2ccccc2)c2cc(C)ccc2n1`, the cell number change is -2.39%. Further, the AC50 under setting [2] is 6.51 µM [rising, partial curve, poor fit].
Take `CC(=O)Nc1nonc1NC(=O)c1ccc(C(C)(C)C)cc1`: the cell number change is -24.2%. The AC50 under setting [2] was 6.51 µM [rising, single point].
`C#Cc1ccc(CN2CCN(CCc3ccccc3)C(CCO)C2)cc1` (configuration not stated): the cell number change is 17%. Moreover, the AC50 under setting [2] was 29.1 µM [rising, single point].
Consider `Cc1ccc(OCC(O)CN2CCOCC2)c(C)c1` (configuration not stated), for which the cell number change was 6.16%. Also, the AC50 under setting [2] was 29.1 µM [rising, single point].
Take `Cc1noc(C)c1S(=O)(=O)N1CCN(c2ccc([N+](=O)[O-])cc2)CC1`: the cell number change is -13.1%. In addition, the AC50 under setting [2] is 29.1 µM [rising, single point].
On to `CCc1c(C(=O)NNC(=S)NCC(C)C)csc1C`, for which the cell number change is -47.6%. The AC50 under setting [1] was 5.17 µM [falling, partial curve].
Take `COc1ccc(S(=O)(=O)NC(C)C(=O)NCc2ccco2)cc1OC` (configuration not stated): the cell number change was determined as 11.1%. Besides, the half-maximal activity concentration (AC50) under setting [2] is 29.1 µM [rising, single point].
As for `Cc1onc(-c2ccccc2)c1-c1nnc(CN2CCN(S(=O)(=O)c3ccccc3F)CC2)o1`, the cell number change was -31.2%. The AC50 under setting [1] was 23.1 µM [falling, partial curve, poor fit]. Besides, the AC50 under setting [2] is 0.0103 µM [falling, full curve, poor fit].
In the case of `O=C(COC(=O)CCS(=O)(=O)c1ccccc1)Nc1ccccc1`, the cell number change was -1.94%. For the same molecule, the AC50 under setting [2] was 29.1 µM [rising, single point].
For `Cc1ccccc1/C=C1\Sc2ccc(C(=O)N3CCN(c4ccccn4)CC3)cc2N(C)C1=O`, under setting [2], the AC50 is 1.84 µM [falling, partial curve].
In the case of `CC(C)CCOP(=O)(c1ccc(N(C)C)cc1)C(O)c1ccc(N(C)C)cc1` (configuration not stated), the cell number change is -5.56%. In addition, under setting [2], the AC50 was 20.6 µM [falling, partial curve, poor fit].
Turning to `O=C(NC1CCN(C(=O)Nc2ccccc2Cl)CC1)c1ccccc1`, the cell number change was -36.4%. Moreover, under setting [1], the AC50 is 0.517 µM [falling, full curve, poor fit]. Besides, under setting [2], the AC50 is 6.51 µM [falling, partial curve, poor fit].
Take `O=C(NN/C(=N/S(=O)(=O)c1ccc(Cl)cc1)c1ccccc1)c1ccc(O)cc1`: the cell number change is 11.3%. For the same molecule, the AC50 under setting [1] was 0.731 µM [falling, full curve, poor fit]. Moreover, the AC50 under setting [2] is 29.1 µM [rising, single point].
With `Cc1ccccc1NC(=O)c1ccc(S(=O)(=O)N2CCCC2)cc1`, the cell number change is -6.72%. Also, under setting [2], the AC50 was 0.00517 µM [rising, full curve, poor fit].
With `CN(C)c1ccc(CNc2ncnc3sccc23)cc1`, the cell number change was -1.35%. The AC50 under setting [2] was 4.11 µM [rising, full curve].
On to `C=CCC(NCc1ccco1)c1ccc(OC)cc1OC` (configuration not stated), for which the cell number change is -13.4%. Further, the AC50 under setting [2] is 3.26 µM [falling, partial curve, poor fit].
On to `Cc1cc(N=Nc2c(O)c3ccccc3[nH]c2=O)ccc1N=Nc1ccc(C(=O)N(C)C)cc1`, for which the AC50 under setting [2] is 6.51 µM [falling, partial curve].
Turning to `CCOC(=O)CCCNC(=O)COC(=O)c1cccc(F)c1`, the cell number change was -14.2%. Besides, the AC50 under setting [1] is 2.31 µM [falling, partial curve, poor fit].
For `C/C(=N/NC(=O)c1ccc2c(c1)OCO2)c1cccc(NC(=O)C(C)(C)C)c1`, the cell number change amounted to 18.7%. Under setting [2], the AC50 is 0.517 µM [rising, full curve, poor fit].
For the molecule `Cc1ccc(SCC(=O)Nc2nnc(-c3ccco3)o2)cc1`, the cell number change was -30.6%.
`COc1ccc(C(=O)CSc2nnc(-c3ccco3)c(-c3ccco3)n2)cc1`: the cell number change is -12.4%. In addition, under setting [2], the AC50 was 29.1 µM [falling, single point].
As for `COCCN(C(=O)C1=COCCO1)c1c(N)n(CC(C)C)c(=O)[nH]c1=O`, the cell number change was -10.3%. In addition, the AC50 under setting [2] was 29.1 µM [rising, single point].
As to `COc1ccc(NC(C)=O)cc1NC(=O)CSc1nnc(C2CCCCC2)n1N`, the cell number change is -1.98%. Besides, the AC50 under setting [2] is 29.1 µM [falling, single point].
For the molecule `Cc1ccc(NC(=O)NC(=O)CN2C(=O)NC3(CCCCCCC3)C2=O)c(C)c1`, the cell number change is -36%. Moreover, the AC50 under setting [1] was 16.4 µM [falling, single point]. The AC50 under setting [2] was 29.1 µM [falling, single point].
In the case of `Cc1ccsc1/C=C1\SC(N2CC(C)OC(C)C2)=NC1=O` (configuration not stated), the cell number change turned out to be 31.5%. Further, the AC50 under setting [1] is 8.2 µM [rising, partial curve]. Under setting [2], the AC50 was 4.11 µM [rising, full curve].
As for `Cc1c(C(O)CN2CCC(C(N)=O)CC2)c2ccccc2n1C` (configuration not stated), the cell number change is -7%. Also, the AC50 under setting [1] is 6.51 µM [falling, single point]. Further, under setting [2], the AC50 was 3.66 µM [falling, single point].
Turning to `O=C(NC1CCC(O)CC1)c1cc(-c2ccco2)nc2ccccc12` (configuration not stated), the cell number change turned out to be 40.5%. Besides, the AC50 under setting [1] is 25.9 µM [rising, partial curve].
In the case of `O=C1CC(N2CCN(S(=O)(=O)c3ccccc3F)CC2)C(=O)N1c1ccccc1Cl` (configuration not stated), the cell number change was 10.5%. For the same molecule, the AC50 under setting [1] was 2.59 µM [falling, single point].
`Cc1cc2ccccc2c(=O)n1CC(=O)Nc1ccc2c(c1)OCCO2`: the AC50 is, setting by setting: under setting [1], 2.06 µM [falling, partial curve]; under setting [2], 3.26 µM [falling, partial curve].
Regarding `O=C(COC(=O)c1cccs1)NCc1ccc2c(c1)OCO2`, the cell number change is -9.77%. For the same molecule, the AC50 under setting [2] is 0.0517 µM [rising, full curve, poor fit].
With `COc1nccc(C(F)(F)F)c1C(=O)NC(=O)Nc1ccccc1`, the cell number change came out at 30.7%. For the same molecule, the AC50 under setting [2] is 2.59 µM [rising, full curve].
For the molecule `CN(C)S(=O)(=O)N1CCN(c2ccc(Cl)cc2)CC1`, the cell number change is -20.9%.
Consider `Cc1noc(NS(=O)(=O)c2ccc(NC(=O)C(CC(C)C)N3C(=O)c4ccccc4C3=O)cc2)c1C` (configuration not stated), for which the cell number change worked out at 9.59%. Under setting [2], the AC50 is 0.731 µM [rising, single point].
With `CC[n+]1c(/C=C/c2cc([N+](=O)[O-])ccc2O)ccc2ccccc21`, the cell number change worked out at 0.676%.
`CSc1ccccc1-c1nnc(-c2ccc(Cl)c(Cl)c2)o1`: the cell number change was 10.4%.
With `O=C(N/N=C/c1ccc([N+](=O)[O-])cc1)c1ccc(NS(=O)(=O)c2cccs2)cc1`, the cell number change is -10.2%. Also, under setting [2], the AC50 is 0.82 µM [rising, full curve, poor fit].
In the case of `Cc1cc(Sc2nc(N)ncc2[N+](=O)[O-])ncn1`, the cell number change was -59.2%. Besides, the AC50 under setting [1] is 29.1 µM [falling, single point]. Besides, under setting [2], the AC50 was 29.1 µM [falling, single point].
With `O=S(=O)(c1ccc(Cl)cc1)N1CCN(Cc2c[nH]c3ccccc23)CC1`, the cell number change stood at 34%. The AC50 under setting [1] was 11.6 µM [rising, single point].
For the molecule `O=C(COC(=O)CNC(=O)c1cccs1)Nc1ccc(C(F)(F)F)cc1[N+](=O)[O-]`, the cell number change is -1.2%.
With `COc1ccc(C)cc1NC(=O)C1C2C=CC(C2)C1C(=O)O` (configuration not stated), the cell number change was 2.08%. Further, the AC50 under setting [2] is 3.66 µM [falling, full curve].
In the case of `CCOc1ccccc1-c1noc(CCCC(=O)NC2CCCCC2)n1`, the cell number change was -47.6%. Besides, the AC50 under setting [1] was 0.116 µM [falling, full curve, poor fit].
For `O=C(CCl)Nc1c(C(=O)Nc2ccc3c(c2)OCCO3)oc2ccccc12`, the cell number change was -10.4%. For the same molecule, under setting [2], the AC50 is 1.3 µM [falling, full curve, poor fit].
For `COC(=O)c1ccsc1NC(=O)C1=COCCO1`, the cell number change came to 0.759%.
On to `COc1ccc(-c2cc(C3CCN(Cc4ccc([N+](=O)[O-])cc4)CC3)[nH]n2)cc1`, for which the cell number change stood at 21.6%. The AC50 under setting [2] was 0.00461 µM [rising, full curve, poor fit].
Regarding `Cc1cc(=O)n2nc(N3CCC(C(=O)NCc4cccc(Cl)c4)CC3)sc2n1`, the cell number change is -11.2%. In addition, the AC50 under setting [1] was 2.91 µM [rising, single point]. Besides, under setting [2], the AC50 is 29.1 µM [falling, single point].
Regarding `Cc1ccc(CNC(=O)c2cc3c(=O)n(C)c4ccccc4c3n2C)cc1`, the cell number change was -5.1%. Besides, the AC50 under setting [1] is 1.46 µM [rising, partial curve]. Further, the AC50 under setting [2] was 1.03 µM [rising, full curve].
